Test results reported in patent US20240139333A1, “2,6-DICHLOROPHENYL ESTER COMPOUNDS AND USE THEREOF” (Fusion Pharmaceuticals Inc., priority 2021, published 2024).

Assays:
[1] = Comparative active ester reactivity study with HOPO nucleophile; settings: 1,2-HOPO 1 eq., 22±2° C.
Procedure: (§1) General Experimental Protocol for Comparative Active Ester Reactivity Study with HOPO or HOA Nucleophiles
(§2) To a 4 mL scintillation vial containing Compound A-E (in respective experiments; 1 eq.) was added a stir bar followed by 150 μL of HPLC grade acetonitrile. In another 4 mL scintillation vial containing a respective nucleophile (1 eq.) was added 280 μL HPLC grade water. The solutions were combined and allowed to stir at room temperature (22±2° C.) for 4 hours. Timed aliquots at time (T)=15, 30, 60, 120 and 240 minutes were taken and analyzed by HPLC-MS using elution method 1 (Table 1).

[2] = Comparative active ester reactivity study with HOA nucleophile (benzhydroxamic acid); settings: Benzhydroxamic Acid 1 eq., 22±2° C.
Procedure: as §1, §2

[3] = Comparative active ester reactivity study with HOA nucleophile (N-hydroxy-N-methylbenzamide); settings: N-Hydroxy-N-methylbenzamide 1 eq., 22±2° C.
Procedure: as §1, §2

[4] = Nucleophilic reactivity study with L-Lysine; settings: L-Lysine 5 equiv, 22±2° C.
Procedure: General Experimental Protocol for Nucleophilic Reactivity Study with L-Lysine
To a 4 mL scintillation vial containing Compound A-E (in respective experiments; 1 eq.) was added a stir bar followed by 70 μL of HPLC grade acetonitrile. In another 4 mL scintillation vial containing L-Lysine monohydrochloride (5 eq.) was added 130 μL HPLC grade water followed by diisopropylethylamine (5 eq.). The solutions were combined and allowed to stir at room temperature (22±2° C.). Timed aliquots at time (T)=15, 30, 60 and 120 minutes were taken and analyzed by HPLC-MS using elution method 1 (Table 2).

[5] = Active ester reactivity study with amino acids (Z-Ser-OH); settings: Z-Ser-OH 1 eq., 22±2° C.
Procedure: (§3) General Experimental Protocol for Nucleophilic Reactivity Study with Amino Acids
(§4) To a 4 mL scintillation vial containing Compound A or C (1 eq.) was added a stir bar followed by 70 μL of HPLC grade acetonitrile. In another 4 mL scintillation vial containing a respective amino acid (1-5 eq.) was added 130 μL HPLC grade water followed by diisopropylethylamine (5 eq.). The solutions were combined and allowed to stir at room temperature (22±2° C.) for 4 hours. Timed aliquots at time (T)=15, 30, 60, 120 and 240 minutes were taken and analyzed by HPLC-MS using elution method 1 (Table 6).

[6] = Active ester reactivity study with amino acids (Z-Arg-OH); settings: Z-Arg-OH 1 eq., 22±2° C.
Procedure: as §3, §4

[7] = Active ester reactivity study with amino acids (N-Acetyl-L-Cysteine); settings: N-Acetyl-L-Cysteine 5 eq., 22±2° C.
Procedure: as §3, §4

Compound	% Nucleophilic Substitution Product ([1]; 15 min)	% Nucleophilic Substitution Product ([1]; 30 min)	% Nucleophilic Substitution Product ([1]; 60 min)	% Nucleophilic Substitution Product ([1]; 120 min)	% Nucleophilic Substitution Product ([1]; 240 min)	% Nucleophilic Substitution Product ([2]; 15 min)	% Nucleophilic Substitution Product ([2]; 30 min)	% Nucleophilic Substitution Product ([2]; 60 min)	% Nucleophilic Substitution Product ([2]; 120 min)	% Nucleophilic Substitution Product ([2]; 240 min)	% Nucleophilic Substitution Product ([3]; 15 min)	% Nucleophilic Substitution Product ([3]; 30 min)	% Nucleophilic Substitution Product ([3]; 60 min)	% Nucleophilic Substitution Product ([3]; 120 min)	% Nucleophilic Substitution Product ([3]; 240 min)	% Total Lysine Substitution ([4]; 15 min)	% Total Lysine Substitution ([4]; 30 min)	further results
O=C(CCc1cccnc1)Oc1c(F)c(F)cc(F)c1F [Compound C, 2,3,5,6-Tetrafluorophenyl-3-(pyridin-3-yl)propanoate]	(10.07) %	(12.74) %	(11.09) %	(4.07) %	(1.70) %	(40.72) %	(53.89) %	(67.00) %	(80.24) %	(89.53) %	(18.44) %	(27.06) %	(37.69) %	(49.10) %	(61.03) %	100%		% Nucleophilic Substitution Product ([5]; 15 min): (5.90) %; % Nucleophilic Substitution Product ([5]; 30 min): (9.02) %; % Nucleophilic Substitution Product ([5]; 60 min): (12.30) %; % Nucleophilic Substitution Product ([5]; 120 min): (14.11) %; % Nucleophilic Substitution Product ([5]; 240 min): (14.81) %; % Nucleophilic Substitution Product ([6]; 15 min): (19.78) %; % Nucleophilic Substitution Product ([6]; 30 min): (22.24) %; % Nucleophilic Substitution Product ([6]; 60 min): (24.43) %; % Nucleophilic Substitution Product ([6]; 120 min): (24.57) %; % Nucleophilic Substitution Product ([7]; 15 min): (4.88) %; % Nucleophilic Substitution Product ([7]; 30 min): (8.05) %; % Nucleophilic Substitution Product ([7]; 60 min): (14.75) %; % Nucleophilic Substitution Product ([7]; 120 min): (43.38) %; % Nucleophilic Substitution Product ([7]; 240 min): (100) %
O=C(CCc1cccnc1)Oc1c(F)cccc1F [Compound B, 2,6-Difluorophenyl-3-(pyridin-3-yl)propanoate]	(0.33) %	(0.54) %	(0.98) %	(2.05) %	(1.67) %	(18.10) %	(30.25) %	(43.26) %	(56.93) %	(70.96) %	(8.58) %	(14.88) %	(25.92) %	(43.06) %	(63.71) %	99.80%	100%	
O=C(CCc1cccnc1)ON1C(=O)CCC1=O [Compound E, 2,5-Dioxo-1-pyrrolidinyl 3-pyridinepropanoate]	(9.37) %	(9.21) %	(9.27) %	(5.79) %	(2.95) %	(92.96) %	(94.85) %	(95.25) %	(95.31) %	(95.08) %	(67.92) %	(79.23) %	(88.41) %	(92.23) %	(95.37) %	100%		
O=C(CCc1cccnc1)Oc1ccc([N+](=O)[O-])cc1 [Compound D, 4-Nitrophenyl-3-(pyridin-3-yl)propanoate]	(0.19) %	(0.41) %	(0.78) %	(1.07) %	(0.68) %	(3.51) %	(15.72) %	(25.42) %	(42.66) %	(65.36) %	(4.22) %	(8.89) %	(16.40) %	(34.28) %	(57.91) %	91.66%	100%	
